Literature values, collected in patent publication US20050255049A1, “Formoterol and mometasone aerosol formulations” (priority 2002, published 2005).
Structures can show the parent of a compound that is named as a salt.

Conditions: stated in the background

COc1ccc(CC(C)NCC(O)c2ccc(O)c(NC=O)c2)cc1 (stereo not shown) [formoterol fumarate, N-[2-hydroxy-5-(1-hydroxy-2-((2-(4-methoxyphenyl)-1-methylethyl)amino)ethyl)phenyl]formamide]
density: 1.3 g cm^−3
